# Reference: PubChem BioAssay AID1671190 (National Center for Advancing Translational Sciences (NCATS), 2021)
# Chains of the proteins cited; added tags and fusions are not shown. Lines headed by an entry give the natural chain unless they say otherwise; changes in a name come on top.
# UniProt P18054: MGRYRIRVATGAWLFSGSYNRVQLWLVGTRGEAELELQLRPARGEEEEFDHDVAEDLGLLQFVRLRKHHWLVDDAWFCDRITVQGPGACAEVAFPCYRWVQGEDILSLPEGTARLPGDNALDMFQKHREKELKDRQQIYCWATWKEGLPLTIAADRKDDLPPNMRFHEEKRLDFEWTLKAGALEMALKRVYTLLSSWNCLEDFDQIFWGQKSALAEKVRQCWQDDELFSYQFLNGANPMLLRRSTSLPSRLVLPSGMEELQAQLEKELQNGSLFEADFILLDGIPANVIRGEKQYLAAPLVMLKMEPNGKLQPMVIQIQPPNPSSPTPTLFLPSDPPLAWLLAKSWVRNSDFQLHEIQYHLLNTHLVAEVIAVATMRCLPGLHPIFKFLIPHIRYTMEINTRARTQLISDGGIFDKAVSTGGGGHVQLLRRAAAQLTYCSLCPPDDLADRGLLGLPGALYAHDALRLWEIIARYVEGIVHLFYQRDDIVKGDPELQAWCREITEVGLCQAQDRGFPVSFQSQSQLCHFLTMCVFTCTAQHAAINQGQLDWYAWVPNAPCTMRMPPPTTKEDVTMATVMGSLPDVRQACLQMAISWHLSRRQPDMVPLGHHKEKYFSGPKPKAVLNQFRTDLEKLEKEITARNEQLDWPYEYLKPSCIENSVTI
# Where “and” joins values, the source holds several entries; their conditions need not be identical. Identical values can stand only once. The whole screen tested about 580,000 compounds, of which about 6,100 (1.1%) were called active. Inconclusive results, whose numbers are uncertain, are shown with a selection of clear calls. Calls follow the shape of the dose curve; as a rule, active = well fitted inhibition curve with a large enough effect; inconclusive = small, poorly fitted or top-dose-only effect, or another doubt; inactive = no such curve, though single readings can be large or run the other way. Potencies of inconclusive entries are doubtful fits and often do not repeat.
# Biological target: Polyunsaturated fatty acid lipoxygenase ALOX12 (Homo sapiens) (UniProt P18054)
# Assay: Primary qHTS assay for inhibitors of human arachidonate 12S-lipoxygenase (ALOX12): Round 2
# Conditions: purified 12hLO, xylenol orange hydroperoxide absorbance; activity change, negative = inhibition: at 108 µM (top of the series) unless noted
# In short: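 Purified human 12hLO at 150 nM in 25 mM Hepes, 0.01% Triton X-100, pH 7.0, preincubated 15 min at room temperature with compound. Reaction started with 40 uM arachidonic acid, 30 min at room temperature. Hydroperoxide measured by Fe-xylenol orange, 573/405 nm absorbance ratio.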
# % is scaled to controls: 0 for no effect and ±100 for the full control effect; potency is read from the fitted curve at half-maximal effect.
Compound,Potency,"activity change, negative = inhibition"
Cc1cc(C)c2nc(N3CCN(C)CC3)c(C#N)cc2c1,"inconclusive: 50.1 µM [inhibitor, partial curve, poor fit]",–
CCc1ccc(N2CCn3c2nc2c3c(=O)n(Cc3ccc(F)cc3)c(=O)n2C)cc1,–,inactive: -14.9%
CCN1c2cc(C(=O)Nc3cccc(C(C)C)c3)ccc2C(=O)N2CCCCCC21 (stereo not given),"inconclusive: 7.94 µM [inhibitor, full curve]",–
NC(=O)C1CCN(c2nc(-c3cccc(N)c3)cs2)CC1,–,inactive: -4.03%
COc1ccc(Cl)cc1NC(=O)CN(c1cc(C)cc(C)c1)S(=O)(=O)c1c(C)n[nH]c1C,–,inactive: -4.29%
CC(C)C[C@H]1CNC(=S)N1CC1CCCN1C[C@H](Cc1ccc(O)cc1)N1C[C@H](Cc2ccccc2)N(CC2CCCCC2)C1=S (stereo not given in full),"inconclusive: 70.8 µM [inhibitor, partial curve, poor fit]",–
CC1(C)[C@H](Cc2cc(COc3ccccc3)on2)C[C@@H]1NC1CCC1,"inconclusive: 10 µM [inhibitor, full curve, poor fit]",–
CCc1cccc2cc3c(N)c(C(=O)Nc4ccc(S(=O)(=O)N5CCCC5)cc4)sc3nc12,"inconclusive: 20 µM [inhibitor, partial curve, poor fit]",–
CN(Cc1ccccn1)C(=O)CC1C(=O)NCCN1Cc1cccc(Oc2ccccc2)c1 (stereo not given),–,inactive: -10.3%
CCCN(CCC)S(=O)(=O)c1ccc(NC(=O)Cn2cnc3c2c(=O)n(C)c(=O)n3C)cc1,–,inactive: 3.95%
COc1ccc(OCC#CCNC(C)(C)C)cc1,–,inactive: -23.4%
CCC(c1n[nH]c(=S)n1-c1ccccc1)N(C)C (stereo not given),–,inactive: 27.8%
COC[C@@H]1CN(Cc2ccc3cc[nH]c3c2)C[C@H]1c1nc(C)no1,"inconclusive: 89.1 µM [inhibitor, single point]",–
Cc1cc(C)n2c(Nc3ccc4c(c3)OCCO4)c(-c3ccc(F)cc3)nc2n1,"inconclusive: 14.1 µM [inhibitor, single point]",–
COc1c(C)oc2cc(O)ccc2c1=O,–,inactive: 4.28%
CCCn1nc(C(=O)OCC(=O)c2ccccc2)c2ccccc2c1=O,–,inactive: 1.76%
COc1ccc(CNC(=O)[C@@H](Cc2ccccc2)NC(=O)CC[C@H]2O[C@@H](n3ccc(=O)[nH]c3=O)[C@H](O)[C@@H]2O)cc1,"inconclusive: 141 µM [inhibitor, partial curve, poor fit]",–
Cc1ccc(-c2nc(CS(=O)(=O)CC3CCCO3)co2)c(C)c1 (stereo not given),–,inconclusive: -31% [inhibitor]
O=c1c2cc(Cl)ccc2nc(-c2ccc(Cl)c(Cl)c2)n1O,–,inactive: -18.8%
CC(=O)c1c(C)[nH]c(C(=O)Nc2cc(S(=O)(=O)N(C)C)ccc2C)c1C,"inconclusive: 112 µM [inhibitor, single point]",–
NC(=S)c1ccc[n+]([O-])c1,"inconclusive: 14.1 µM [inhibitor, full curve, poor fit]",–

Compound,Potency,"activity change, negative = inhibition"
O=C(c1cccc(F)c1)N1CCC2(CCCN(c3ccccn3)C2)CC1,"inconclusive: 31.6 µM [inhibitor, single point]",–
Cc1ccc(S(=O)(=O)N(CC(=O)N2CCC(C(N)=O)CC2)c2cccc(C(F)(F)F)c2)cc1,"inconclusive: 0.631 µM [inhibitor, full curve, poor fit]",–
CCOC(=O)Cc1cc(=O)c2c(=O)n(-c3ccccc3)[nH]c2[nH]1,"inconclusive: 14.1 µM [inhibitor, partial curve, poor fit]",–
CCNC(=O)Nc1ccc(-n2nc(C)c(C(=O)OCC)c2C)nc1,–,inactive: -4.63%
Cc1cccc(-c2oc3ccccc3c2C#CCCO)c1,"inconclusive: 44.7 µM [inhibitor, partial curve, poor fit]",–
CCn1c(C(C)NC(=O)c2cccc(C)c2)nc2ccccc21 (stereo not given),–,inactive: -22.6%
O=C1OC(c2ccccc2)=N/C1=C\C=C\c1ccco1,"inconclusive: 39.8 µM [inhibitor, partial curve, poor fit]",–
Cc1ccc(S(=O)(=O)N2CCOCC2)c(C)c1-n1cnnn1,–,inactive: 9.84%
Cn1c(=O)n(CC(=O)O)c(=O)c2c3c(sc21)COC(C)(C)C3,–,inactive: 54.6%
Cc1ccc(CSc2ncc(CO)n2CC(=O)NC2CCCC2)cc1,"inconclusive: 141 µM [inhibitor, single point]",–
COc1ccc(C(=O)Cc2cc(OC)c(OC)cc2C(=O)c2ccccc2F)cc1OC,"inconclusive: 5.01 µM [inhibitor, single point]",–
COCCN1CCN(C(=O)c2ccc3c(c2)S(=O)(=O)c2ccccc2C3=O)CC1,"inconclusive: 89.1 µM [inhibitor, single point]",–
CC(C)Cc1cc(CC2(NCc3ccccc3O)COC2)no1,"inconclusive: 4.47 µM [inhibitor, full curve, poor fit]",–
CCN=C1NC(c2ccccc2C(F)(F)F)C(C(=O)OC)=C(C)N1Cc1ccc(C(F)(F)F)cc1 (stereo not given),"inconclusive: 39.8 µM [inhibitor, partial curve]",–
COc1ccc(-c2noc(C(=O)O)c2[C@@H](C)NC(=O)c2cccn2C)cc1,"inconclusive: 25.1 µM [inhibitor, full curve]",–
CC(=O)Nc1ccc(NC(=O)c2cc(-c3ccccn3)nc3ccccc23)cc1,"inconclusive: 50.1 µM [inhibitor, partial curve, poor fit]",–
CC(C)(CNC(=O)c1cc(-c2ccccc2F)on1)N1CCOCC1,–,inactive: -10%
COc1cccc(/C=N/NC(=O)c2ccccc2N(Cc2ccccc2)S(=O)(=O)c2ccccc2)c1OC,–,inactive: 0.877%
NC(=O)CSc1nnc(-c2cnccn2)n1Cc1ccco1,"inconclusive: 0.447 µM [inhibitor, full curve, poor fit]",–
CC1CCCCC1NC(=O)C1CCC1 (stereo not given),–,inactive: -18.3%
CSCC[C@H](NC(=O)Cc1c(C)c2c(cc(C)c3c(C)c(C)oc32)oc1=O)C(=O)O,"inconclusive: 141 µM [inhibitor, partial curve, poor fit]",–
O=C(COc1ccccc1Cl)Nc1cccc(-c2nnc(-c3ccco3)o2)c1,"inconclusive: 31.6 µM [inhibitor, partial curve, poor fit]",–

Compound,Potency,"activity change, negative = inhibition"
CCOc1ccccc1NC(=O)c1c(NC(=O)CCC(=O)O)sc2c1CCCCC2,"inconclusive: 39.8 µM [inhibitor, partial curve, poor fit]",–
CCOP(=O)(OCC)c1nc(-c2ccc([N+](=O)[O-])cc2)oc1NCc1ccc(F)cc1,"inconclusive: 10 µM [inhibitor, full curve, poor fit]",–
Cc1ccccc1C(=O)NCC(=O)c1ccccc1,"inconclusive: 89.1 µM [inhibitor, single point]",–
CC(=O)N1CCC2(CCCN(c3ccccc3)C2)CC1,"inconclusive: 28.2 µM [inhibitor, single point]",–
CCn1c(=O)c2sccc2n(Cc2cccc(C)c2)c1=O,"inconclusive: 56.2 µM [inhibitor, single point]",–
CN(CC(=O)Nc1cccc(Cl)c1)S(=O)(=O)c1ccc2[nH]c3c(c2c1)CCCC3,"inconclusive: 89.1 µM [inhibitor, partial curve, poor fit]",–
CC(=O)/C=C/c1c(C)oc2ccccc12,"inconclusive: 17.8 µM [inhibitor, partial curve, poor fit]",–
COc1cccc(-c2cnc3c(NC(C)=O)cc(-c4cc(F)ccc4OC)cn23)c1,"inconclusive: 6.31 µM [inhibitor, full curve, poor fit]",–
Fc1ccc(NCC23CC4CC(CC(C4)C2)C3)cc1,–,inactive: 2.88%
Cn1c(=O)c2cc(C(=O)Nc3ccc(Cl)c4ncccc34)cnc2n(C)c1=O,–,inactive: -0.925%
COc1ccc2nc(C)cc(SCC(NC(C)=O)C(=O)OC(C)C)c2c1 (stereo not given),"inconclusive: 112 µM [inhibitor, single point] and inconclusive: 79.4 µM [inhibitor, single point]",–
COc1ccc(CNC(=O)Cn2c(=O)oc3cc(S(=O)(=O)N4CCCCCC4)ccc32)cc1,"inconclusive: 141 µM [inhibitor, partial curve, poor fit]",–
CC(=NNc1cc(C)c2cc(C)ccc2n1)c1ccccn1,"inconclusive: 50.1 µM [inhibitor, partial curve, poor fit]",–
CC(=O)c1c(C)[nH]c(C(=O)NCc2ccccc2F)c1C,"inconclusive: 112 µM [inhibitor, single point]",–
O=C(NC(=S)NCc1ccccc1)c1cccc(Cl)c1,active: 28.2 µM,–
CNC(=O)NC(=O)COC(=O)c1csc(NCc2ccccc2)n1,"inconclusive: 8.91 µM [inhibitor, full curve, poor fit]",–
Clc1cccc2c1Sc1ccccc1CC2N1CCNCC1 (stereo not given),"inconclusive: 50.1 µM [inhibitor, partial curve, poor fit]",–
O=S(=O)(c1ccc(Br)s1)N1CCN(c2ccccn2)CC1,"inconclusive: 3.55 µM [inhibitor, full curve, poor fit]",–
Cc1cc(C2=NNC(=NC3CCCC3)SC2)c(C)n1C1CC1,"inconclusive: 79.4 µM [inhibitor, partial curve, poor fit]",–
Cc1cc(N2CCN(C)CC2)nc2ccc(NC(=O)Nc3ccccc3Br)cc12,"inconclusive: 50.1 µM [inhibitor, partial curve, poor fit]",–
N#Cc1nc(COc2ccc3c(c2)OCO3)oc1NC1CC1,"inconclusive: 50.1 µM [inhibitor, single point]",–
